Two compounds from patent US9169203B2, “Sulfoxide-based surfactants” (Novus International Inc., priority 2012, dated 2015) can be followed below.

This series in a line: Draves Wetting Test (ASTM D2281-68). In kind it is physicochemical.

`CCCCCCOC(=O)C(O)CC[S+](C)[O-]` (centres unmarked) [Example R6SO, hexyl 2-hydroxy-4-(methylsulfinyl)butanoate]: the “Time for skein to sink” value runs as follows: (Concentration 0.05%) over 24 h; (Concentration 0.10%) over 24 h; (Concentration 0.25%) over 24 h; (Concentration 0.50%) about 6 h.
`CCCCCCCCOC(=O)C(O)CC[S+](C)[O-]` (centres unmarked) [Example R8SO, octyl 2-hydroxy-4-(methylsulfinyl)butanoate]: the “Time for skein to sink” value reads like this: (Concentration 0.05%) over 0.5 h; (Concentration 0.10%) over 0.5 h; (Concentration 0.25%) 0.0014 h; (Concentration 0.50%) under 0.0014 h.
